The list shows a part of the results. These are further read-outs of the screen, such as a control signal, another cell line or another target. No call is given for them. The list favours compounds with an active or inconclusive main result. Words in brackets tell the shape of the fitted curve; partial curves, single points and poor fits give uncertain potencies.
Test: qHTS Assay to Find Inhibitors of Chronic Active B-Cell Receptor Signaling
Conditions: ABC-DLBCL IkBa-CBG/CBR reporter, luminescence ratio (green luciferase fused to IkBa over red control in TMD8 lymphoma cells), 4 h
Summary of the method: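 TMD8 human ABC-DLBCL cells with doxycycline-inducible IκBα–green luciferase fusion and unfused red luciferase, in 0.5% FBS medium; compounds up to 46 uM, 4 h at 37C. Green/red luminescence ratio, filter-overlap corrected, fitted to concentration-response curves.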

[1] = measured here: CBR red luminescence, cell number

SMILES	AC50 [1]	AC50 (measured here: IkBa-CBG green luminescence)
COc1cc(S(=O)(=O)NC2CCCC2)ccc1F	0.164 µM [rising, full curve, poor fit]	–
O=C(Nc1cccc(C(F)(F)F)c1)c1cc2c(s1)-c1ccccc1OC2	29.1 µM [rising, single point]	–
Cc1ccc(NC(=O)Nc2cccc(Cl)c2)c(C(=O)O)c1	1.78 µM [falling, full curve, poor fit]	–
COC(=O)CCCCCCCCC(=O)Nc1nc2ccccc2s1	1.58 µM [falling, full curve]	–
CCOc1ccccc1-c1nnc(CS(=O)(=O)c2ccccc2)o1	35.5 µM [falling, single point]	–
Cc1cccc(NC(=O)CC23CC4CC(C2)CC(n2nnc(C)n2)(C4)C3)c1	0.411 µM [rising, full curve, poor fit]	–
Fc1ccc(Br)cc1C1C=C(c2ccc(Br)s2)Nc2ncnn21 (stereo not given)	0.517 µM [rising, full curve, poor fit]	–
Cc1ccccc1Nc1ncnc2c1cnn2Cc1ccccc1	10 µM [falling, partial curve]	–
c1ccc(-c2nc[nH]c2-c2ccccc2)cc1	8.2 µM [falling, partial curve, poor fit]	–
COc1ccc(C)cc1-n1nnnc1SCc1nc2ccccc2s1	3.16 µM [rising, single point]	–
COc1cc2[nH]c(=O)n(C3CCCCC3)c(=O)c2cc1OC	8.2 µM [rising, partial curve, poor fit]	–
CN(C)C=NC(=O)c1cc(C(=O)c2ccc(C(C)(C)C)cc2)c[nH]1	5.62 µM [rising, single point]	–
O=C(CSc1ccsc1[N+](=O)[O-])N1CCN(c2ccc(Cl)cc2)CC1	32.6 µM [rising, single point]	–
CCS(=O)(=O)c1ccc2oc(Nc3cc(Cl)ccc3OC)nc2c1	2.24 µM [rising, full curve, poor fit]	–
Oc1ccc(-c2nc(-c3ccc(F)cc3)c(-c3ccncc3)[nH]2)cc1	9.2 µM [falling, partial curve, poor fit]	–
Cc1onc(-c2ccccc2)c1C(=O)Nc1nnc(COc2ccc(Cl)cc2)s1	6.51 µM [falling, partial curve, poor fit]	–
CCN(CC(=O)Nc1ccccc1OC)C(=O)CC1CC2CCC1C2 (stereo not given)	23.1 µM [rising, partial curve]	–
COc1ccc(NC(=O)Cn2c(=O)oc3ccccc32)cc1	25.1 µM [falling, single point]	–
C[C@H](CO)N1C[C@H](C)[C@@H](CN(C)Cc2ccncc2)Oc2c(NS(=O)(=O)c3ccccc3)cccc2C1=O	4.11 µM [rising, full curve]	–
CCCCn1c(N)c(N(CC(C)C)C(=O)CCCc2nc3ccccc3c(=O)[nH]2)c(=O)[nH]c1=O	23.1 µM [rising, single point]	–
Nc1nc(NCCN2CCOCC2)nc(NCc2ccccc2)c1[N+](=O)[O-]	20 µM [rising, partial curve, poor fit]	–
COc1cc(/C=C2/NC(=O)N(c3cccc(Cl)c3)C2=O)ccc1O	10 µM [falling, single point]	–

SMILES	AC50 [1]	AC50 (measured here: IkBa-CBG green luminescence)
CNC(=S)NNC(=O)c1ccc2c(c1)OCO2	11.2 µM [falling, partial curve]	–
N/C(=N\OC(=O)c1cccc([N+](=O)[O-])c1)c1ccccn1	15.8 µM [falling, single point]	–
CC(C)(O)CNC(=O)Nc1ccc(Cl)c(Cl)c1	0.562 µM [rising, full curve, poor fit]	–
COc1cc(/C=N/N(C)c2ccccc2)cc(Cl)c1O	0.731 µM [rising, full curve, poor fit]	–
COc1ccc(NC(=O)N(C)C[C@H]2Oc3c(NC(=O)C4CCCCC4)cccc3C(=O)N([C@H](C)CO)C[C@@H]2C)cc1	10.3 µM [rising, partial curve, poor fit]	–
O=C(Nc1nnc(-c2ccncc2)o1)c1ccccc1F	11.2 µM [falling, partial curve]	–
Cc1ccc(C(=O)NC(=C(Cl)Cl)S(=O)(=O)c2ccc(C)cc2)cc1	5.8 µM [falling, full curve, poor fit]	–
Cc1[nH]c2ccccc2c1N=Nc1cccc(C(=O)O)c1	0.058 µM [falling, full curve]	–
Cn1c(SCC(=O)N2c3ccccc3Sc3ccccc32)nc2ccccc21	0.00461 µM [rising, full curve, poor fit]	20.6 µM [falling, partial curve, poor fit]
O=S(=O)(c1ccc(F)cc1)N1CCN(Cc2ccccc2C(F)(F)F)CC1	4.61 µM [falling, single point]	–
CCN(CC)CCCNc1nc2cc(OC)c(OC)cc2c2nc(-c3ccccc3)nn12	20.6 µM [falling, partial curve, poor fit]	–
Cc1cc(C)cc(Nc2cc(=O)n(C3CCCCC3)c(=O)[nH]2)c1	35.5 µM [rising, single point]	–
COc1ccccc1NC(=O)c1cc2cc(Br)ccc2cc1O	0.112 µM [falling, full curve]	–
Nc1nc(N2CCOCC2)nc2ccccc12	0.146 µM [falling, full curve, poor fit]	–
COc1ccc(CNC(=O)CC2Sc3ccccc3NC2=O)cc1 (stereo not given)	3.16 µM [rising, partial curve, poor fit]	–
Cc1ccc(NC(=S)N=Nc2c(O)n(C)c3ccc(S(=O)(=O)N4CCOCC4)cc23)cc1C	29.1 µM [rising, single point]	–
Cc1nn(C(C)(C)C)c(NC(=O)c2ccccc2)c1C#N	35.5 µM [rising, single point]	–
CNC(=O)CC1C(=O)N(c2ccc(F)cc2)C(=S)N1NC(=O)c1ccc(Cl)cc1 (stereo not given)	7.94 µM [falling, partial curve]	–
O=C(NCCc1ccccc1)C1CCN(S(=O)(=O)c2ccc(Br)s2)CC1	3.66 µM [rising, partial curve, poor fit]	–
C[C@@H]1CCC(=O)N(CC[C@H](N=[N+]=[N-])c2ccccc2)CC1	12.6 µM [rising, partial curve, poor fit]	–
CCOc1ccccc1NC(=O)C1CCCN(S(=O)(=O)c2ccccc2)C1 (stereo not given)	35.5 µM [falling, partial curve, poor fit]	–
COc1ccc(S(=O)(=O)N(Cc2nc3ccccc3c(=O)[nH]2)C2CCCC2)cc1	32.6 µM [falling, single point]	–

SMILES	AC50 [1]	AC50 (measured here: IkBa-CBG green luminescence)
COc1cc2cc(C(=O)NCCc3ccccc3)[nH]c2cc1OC	11.2 µM [rising, partial curve]	–
CCOC(=O)c1ccccc1NC(=O)c1c(F)c(F)c(F)c(F)c1F	23.1 µM [falling, single point]	–
Cc1ccnc(SCC(=O)c2ccc(Br)cc2)c1C#N	23.1 µM [falling, single point]	–
O=C(/C=C/c1c(F)cccc1Cl)c1ccc(F)cc1	31.6 µM [rising, single point]	–
O=C(c1ccc(Cn2cc(Br)cn2)o1)N1N=C(C(F)F)CC1(O)C(F)F (stereo not given)	14.6 µM [falling, single point]	–
Cc1cc(NC(=O)Cc2ccccc2)ccc1NC(=O)c1cccs1	12.6 µM [rising, partial curve, poor fit]	–
COc1cccc(Nc2nnc(-c3cc4ccc(O)cc4oc3=O)s2)c1	0.355 µM [falling, full curve, poor fit]	–
COc1ccc(/C=C/C(=O)N2CCNC(=O)C2)c(OC)c1	28.2 µM [falling, single point]	–
Cc1cccc(-n2cnc3cc(C(=O)N4CCCCC4)ccc32)c1	3.55 µM [rising, single point]	–
Nc1nc(CSC(=S)N2CCCCC2)nc(Nc2ccccc2)n1	35.5 µM [falling, single point]	–
Cc1cccc(NC(=O)CCN2C(=O)c3ccccc3S2(=O)=O)c1C	6.31 µM [falling, single point]	–
COc1ccccc1CN(C(=O)CNC(=O)c1ccco1)C(C(=O)NCC1CCCO1)c1ccccc1 (stereo not given)	6.31 µM [falling, single point]	–
COc1cccc(/C=N/n2cnc3c(cnn3-c3ccccc3)c2=O)c1	3.98 µM [rising, partial curve, poor fit]	–
CN(C)c1ccc(/C=C/c2nnnn2-c2ccccc2)cc1	29.1 µM [falling, single point]	–
C=CCn1c(-c2ccc(OC)c(OC)c2)cs/c1=N\c1ccccn1	0.731 µM [rising, partial curve]	–
COc1cc(NC(=O)c2ccc(COc3ccccc3Br)o2)cc(OC)c1OC	29.1 µM [falling, single point]	–
O=C1N=c2ccccc2=C1c1sc(Nc2cccc(O)c2)nc1O	35.5 µM [falling, single point]	–
COc1ccccc1C(=O)N1CCN(C(=O)c2ccncc2)CC1	6.51 µM [falling, single point]	–
CC(C)[C@@H](CO)NC(=O)c1ccc2c3n(nc2c1)-c1ccccc1CO3	11.2 µM [falling, partial curve, poor fit]	–
COc1ccc(NS(=O)(=O)c2cccc(N/C(=N\S(=O)(=O)c3ccccc3)c3ccc(F)cc3)c2)cc1	29.1 µM [falling, single point]	–

Record cards, from the list above. Order of values: AC50 [1] | AC50 (measured here: IkBa-CBG green luminescence)
CCCCn1c(N)c(N(CC(C)C)C(=O)CCCc2nc3ccccc3c(=O)[nH]2)c(=O)[nH]c1=O is listed as 23.1 µM [rising, single point] | –
COc1cc(S(=O)(=O)NC2CCCC2)ccc1F is listed as 0.164 µM [rising, full curve, poor fit] | –
c1ccc(-c2nc[nH]c2-c2ccccc2)cc1 is listed as 8.2 µM [falling, partial curve, poor fit] | –
COc1ccccc1CN(C(=O)CNC(=O)c1ccco1)C(C(=O)NCC1CCCO1)c1ccccc1 (stereo not given) is listed as 6.31 µM [falling, single point] | –

Source: PubChem BioAssay AID493014 (National Center for Advancing Translational Sciences (NCATS), 2011)
